PubChem BioAssay AID1259308 – NCATS, 2017

- Screen: 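Knock-downs that increase output of a recombinant reporter protein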 (primary screen)
- Cells: human HEK293 embryonic kidney cells stably expressing firefly luciferase (HEK-CMV-Luc2-Hygro)
- Knock-down reagent: single siRNA against human genes, 0.8 pmol siRNA per well
- Duration: 72 h
- Measurement: 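Reporter luminescence and viable-cell signal on separate replicate plates, given as percent of non-targeting control and median/MAD z-scores, plus per-cell luciferase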
- Reading the numbers: total luciferase, z-score and total luciferase, % of control: higher = more reporter protein produced
- Rule for the call: 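Active when the median/MAD z-score for overall luciferase is greater than 3; a gene was taken forward for validation with new siRNAs if at least two of its three siRNAs passed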
- Calls: active = raised luciferase; inactive = no rise
In all, the deposit lists about 59,000 reagents; below is an unselected part. Over the whole deposit, about 1,510 (2.6%) got an active call. 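Calls use total luciferase alone and ignore viability, so some active siRNAs may act by altering cell number.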 Unmarked entries are inactive. Reagents against one gene are numbered here. Further read-outs or replicates are left out here.

MED20 (GeneID 9477) #1 | total luciferase, z-score: -0.375; total luciferase, % of control: 74.4
MED20 (GeneID 9477) #2 | total luciferase, z-score: -0.491; total luciferase, % of control: 72.1
MED20 (GeneID 9477) #3 | total luciferase, z-score: -0.329; total luciferase, % of control: 75.3
ABCB7 (GeneID 22) #1 | total luciferase, z-score: -1.9; total luciferase, % of control: 44
ABCB7 (GeneID 22) #2 | total luciferase, z-score: 0.413; total luciferase, % of control: 90.1
ABCB7 (GeneID 22) #3 | total luciferase, z-score: -0.59; total luciferase, % of control: 70.1
SCN8A (GeneID 6334) #1 | total luciferase, z-score: -0.822; total luciferase, % of control: 65.5
SCN8A (GeneID 6334) #2 | total luciferase, z-score: 0.391; total luciferase, % of control: 89.7
SCN8A (GeneID 6334) #3 | total luciferase, z-score: 0.609; total luciferase, % of control: 94
TCAF1 (GeneID 9747) #1 | total luciferase, z-score: -2.56; total luciferase, % of control: 31
TCAF1 (GeneID 9747) #2 | total luciferase, z-score: -1.38; total luciferase, % of control: 54.4
TCAF1 (GeneID 9747) #3 | total luciferase, z-score: 0.455; total luciferase, % of control: 90.9

3 consecutive records already listed:
MED20 (GeneID 9477) #3 | total luciferase, z-score: -0.329; total luciferase, % of control: 75.3
ABCB7 (GeneID 22) #1 | total luciferase, z-score: -1.9; total luciferase, % of control: 44
ABCB7 (GeneID 22) #2 | total luciferase, z-score: 0.413; total luciferase, % of control: 90.1

Further entries follow.
IER3 (GeneID 8870) #1 | total luciferase, z-score: -0.881; total luciferase, % of control: 64.4
IER3 (GeneID 8870) #2 | total luciferase, z-score: -0.871; total luciferase, % of control: 64.6
IER3 (GeneID 8870) #3 | total luciferase, z-score: 0.369; total luciferase, % of control: 89.2
MIR1915HG (GeneID 399726) #1 | total luciferase, z-score: 0.131; total luciferase, % of control: 84.5
MIR1915HG (GeneID 399726) #2 | total luciferase, z-score: 0.231; total luciferase, % of control: 86.5
MIR1915HG (GeneID 399726) #3 | total luciferase, z-score: -1.86; total luciferase, % of control: 44.8
BRINP1 (GeneID 1620) #1 | total luciferase, z-score: 1.82; total luciferase, % of control: 118
BRINP1 (GeneID 1620) #2 | total luciferase, z-score: -0.706; total luciferase, % of control: 67.9
BRINP1 (GeneID 1620) #3 | total luciferase, z-score: 0.221; total luciferase, % of control: 86.3
ARFGEF2 (GeneID 10564) #1 | total luciferase, z-score: 0.367; total luciferase, % of control: 89.2
ARFGEF2 (GeneID 10564) #2 | total luciferase, z-score: 0.0576; total luciferase, % of control: 83
ARFGEF2 (GeneID 10564) #3 | total luciferase, z-score: -1.91; total luciferase, % of control: 44
MAGIX (GeneID 79917) #1 | total luciferase, z-score: -2.12; total luciferase, % of control: 39.8
MAGIX (GeneID 79917) #2 | total luciferase, z-score: 2.89; total luciferase, % of control: 139
MAGIX (GeneID 79917) #3 | total luciferase, z-score: -0.0909; total luciferase, % of control: 80.1
F2R (GeneID 2149) #1 | total luciferase, z-score: -1.21; total luciferase, % of control: 57.8
F2R (GeneID 2149) #2 | total luciferase, z-score: -0.157; total luciferase, % of control: 78.8
F2R (GeneID 2149) #3 | total luciferase, z-score: -1.26; total luciferase, % of control: 56.8
SPRYD4 (GeneID 283377) #1 | total luciferase, z-score: -0.616; total luciferase, % of control: 69.6
SPRYD4 (GeneID 283377) #2 | total luciferase, z-score: 0.105; total luciferase, % of control: 84
SPRYD4 (GeneID 283377) #3 | total luciferase, z-score: -0.217; total luciferase, % of control: 77.6
